From PMC6113293, “Phosphorylation of ULK1 affects autophagosome fusion and links chaperone-mediated autophagy to macroautophagy” (Nature Communications, 2018)
Residue numbers refer to the chain shown, from its start. No constants are given. Whether binding was seen depends on the method and setting. Binding seen in cells or lysates may run through a third protein. Some results given as binding are weak or reduced against the parent protein; the word gives no strength. Where a sequence is shown, tags or fusion partners need not be part of it. Blank lines part the entries; values can stand above or below the substance they belong to.

Protein sequences, listed by entry. Tags and fused reporters are not part of them.
UniProt P11142: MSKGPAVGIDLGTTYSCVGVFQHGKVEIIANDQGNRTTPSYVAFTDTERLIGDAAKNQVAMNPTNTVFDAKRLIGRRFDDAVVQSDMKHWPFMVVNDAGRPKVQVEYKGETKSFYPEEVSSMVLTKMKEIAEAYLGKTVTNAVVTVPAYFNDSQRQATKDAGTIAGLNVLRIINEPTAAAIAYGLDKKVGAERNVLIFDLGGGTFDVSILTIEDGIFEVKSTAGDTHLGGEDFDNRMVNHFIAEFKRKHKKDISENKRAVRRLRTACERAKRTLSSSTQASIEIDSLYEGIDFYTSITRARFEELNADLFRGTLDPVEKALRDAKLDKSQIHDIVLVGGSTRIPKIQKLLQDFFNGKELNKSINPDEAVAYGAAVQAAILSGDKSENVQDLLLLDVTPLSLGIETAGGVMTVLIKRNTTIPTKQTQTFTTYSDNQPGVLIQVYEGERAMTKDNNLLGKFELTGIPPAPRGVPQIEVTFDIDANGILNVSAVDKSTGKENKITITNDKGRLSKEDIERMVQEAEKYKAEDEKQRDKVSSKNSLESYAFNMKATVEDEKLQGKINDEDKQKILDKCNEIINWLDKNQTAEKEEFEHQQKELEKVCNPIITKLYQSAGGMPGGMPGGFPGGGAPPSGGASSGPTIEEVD

How the values were obtained:
[1] = target: T1, ULK1 S423D (tag not told) (UniProt O75385); assay: co-IP; ULK1 variants transfected with Lamp2a or HA-HSC70; IP assay; which partner was precipitated is not told
T1 sequence: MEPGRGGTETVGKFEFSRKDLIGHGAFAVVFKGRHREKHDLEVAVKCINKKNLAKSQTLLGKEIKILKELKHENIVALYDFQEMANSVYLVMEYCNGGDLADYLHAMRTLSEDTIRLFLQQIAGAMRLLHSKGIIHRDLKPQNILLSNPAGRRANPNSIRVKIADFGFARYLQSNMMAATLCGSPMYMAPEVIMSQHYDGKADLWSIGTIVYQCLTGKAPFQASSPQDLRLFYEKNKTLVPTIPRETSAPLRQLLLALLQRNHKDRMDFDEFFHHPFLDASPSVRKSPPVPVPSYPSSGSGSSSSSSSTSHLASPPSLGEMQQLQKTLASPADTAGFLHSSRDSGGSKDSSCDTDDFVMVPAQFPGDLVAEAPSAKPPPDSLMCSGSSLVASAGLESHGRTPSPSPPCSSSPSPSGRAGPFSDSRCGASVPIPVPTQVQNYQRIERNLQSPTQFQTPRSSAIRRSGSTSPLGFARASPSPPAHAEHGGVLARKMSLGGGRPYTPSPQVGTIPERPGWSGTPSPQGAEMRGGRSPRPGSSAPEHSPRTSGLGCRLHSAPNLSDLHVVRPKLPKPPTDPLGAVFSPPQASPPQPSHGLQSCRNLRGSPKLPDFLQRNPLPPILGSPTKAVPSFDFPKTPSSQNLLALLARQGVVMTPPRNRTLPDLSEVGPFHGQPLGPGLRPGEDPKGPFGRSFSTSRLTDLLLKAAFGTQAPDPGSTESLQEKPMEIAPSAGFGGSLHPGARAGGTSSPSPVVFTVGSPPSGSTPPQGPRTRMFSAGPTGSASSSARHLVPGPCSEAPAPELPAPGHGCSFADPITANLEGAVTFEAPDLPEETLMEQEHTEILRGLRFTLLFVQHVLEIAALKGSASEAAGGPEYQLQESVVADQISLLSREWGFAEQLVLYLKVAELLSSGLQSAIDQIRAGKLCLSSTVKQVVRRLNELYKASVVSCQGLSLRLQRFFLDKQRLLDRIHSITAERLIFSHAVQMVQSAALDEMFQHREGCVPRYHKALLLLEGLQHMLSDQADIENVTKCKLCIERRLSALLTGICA

[2] = target: T2, GST-ULK1 (UniProt O75385); assay: pull-down; GST-ULK1 (or GST) co-transfected with the tagged partner in HEK293T; lysate pulled down with glutathione agarose at 4 °C overnight; western blot
T2 sequence: T1 sequence with D423S

[3] = target: T3, GST-ULK1 279–525 (truncation, in mammalian cells) (UniProt O75385); assay: co-IP; GST-tagged truncations co-transfected with the tagged partner into HEK293T; 'IP'; which partner was precipitated is not told
T3 sequence: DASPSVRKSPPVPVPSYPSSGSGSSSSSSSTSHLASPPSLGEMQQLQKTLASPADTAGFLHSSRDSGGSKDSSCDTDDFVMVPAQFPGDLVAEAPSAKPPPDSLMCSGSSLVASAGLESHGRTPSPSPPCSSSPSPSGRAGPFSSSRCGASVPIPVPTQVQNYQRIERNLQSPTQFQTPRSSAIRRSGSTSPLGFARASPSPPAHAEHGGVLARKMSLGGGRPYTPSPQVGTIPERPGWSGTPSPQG

[4] = target: T4, Flag-ULK1 (UniProt O75385); assay: as above
T4 sequence: T1 sequence with D423S

binding [1]: binds
binding [2]: binds
Substance: HA-HSC70 (from UniProt P11142 1-646)

binding [3]: binds
Substance: PKCα (construct not told) (from UniProt P17252 1-672) (enzyme)

binding [4]: binds
Substance: GST-PKCα 167–338 (fragment 2) (from UniProt P17252 167-338) (domain or fragment)
